Test results: the supplement of paper PMC6411743
± gives the standard deviation of the averaged measurements. Only a part is listed here, and it is no random draw. Small differences around the control level are noise.

Protein sequences, listed by entry. Tags and fused reporters are not part of them. Lines headed by an entry give the natural chain unless they say otherwise; changes in a name come on top.
UniProt P13598: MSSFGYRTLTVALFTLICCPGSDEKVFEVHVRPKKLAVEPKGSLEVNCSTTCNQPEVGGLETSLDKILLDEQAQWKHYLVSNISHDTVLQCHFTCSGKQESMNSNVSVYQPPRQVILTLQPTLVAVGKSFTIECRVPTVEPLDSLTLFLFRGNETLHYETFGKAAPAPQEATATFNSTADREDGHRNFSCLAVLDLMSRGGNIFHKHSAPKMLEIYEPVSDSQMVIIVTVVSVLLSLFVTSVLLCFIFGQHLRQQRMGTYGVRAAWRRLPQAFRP
UniProt P08670, whole entry: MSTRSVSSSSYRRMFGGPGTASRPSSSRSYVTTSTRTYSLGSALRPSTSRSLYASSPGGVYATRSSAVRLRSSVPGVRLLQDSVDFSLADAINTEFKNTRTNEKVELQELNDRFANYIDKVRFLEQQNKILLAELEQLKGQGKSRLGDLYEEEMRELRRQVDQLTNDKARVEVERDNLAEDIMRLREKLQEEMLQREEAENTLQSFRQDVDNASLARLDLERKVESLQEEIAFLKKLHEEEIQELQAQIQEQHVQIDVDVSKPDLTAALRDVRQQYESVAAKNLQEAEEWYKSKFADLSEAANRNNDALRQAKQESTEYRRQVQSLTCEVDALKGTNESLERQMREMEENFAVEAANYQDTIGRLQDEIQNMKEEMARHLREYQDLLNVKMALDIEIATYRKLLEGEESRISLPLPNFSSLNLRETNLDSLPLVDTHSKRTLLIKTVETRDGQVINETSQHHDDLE
UniProt P14868: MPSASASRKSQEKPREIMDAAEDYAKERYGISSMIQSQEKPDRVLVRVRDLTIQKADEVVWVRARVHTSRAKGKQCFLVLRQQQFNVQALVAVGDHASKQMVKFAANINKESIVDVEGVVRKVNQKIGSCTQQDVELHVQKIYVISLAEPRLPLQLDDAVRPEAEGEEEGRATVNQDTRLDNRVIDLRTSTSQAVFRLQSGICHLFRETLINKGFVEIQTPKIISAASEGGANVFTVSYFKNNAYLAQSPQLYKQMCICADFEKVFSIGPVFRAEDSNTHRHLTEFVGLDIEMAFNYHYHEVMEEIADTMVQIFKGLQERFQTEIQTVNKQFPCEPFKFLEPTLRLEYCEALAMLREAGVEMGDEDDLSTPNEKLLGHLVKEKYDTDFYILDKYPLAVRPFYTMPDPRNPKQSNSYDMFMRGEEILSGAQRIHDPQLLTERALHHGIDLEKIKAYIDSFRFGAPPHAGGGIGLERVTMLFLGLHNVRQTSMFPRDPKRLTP
UniProt P02786, whole entry, looked up: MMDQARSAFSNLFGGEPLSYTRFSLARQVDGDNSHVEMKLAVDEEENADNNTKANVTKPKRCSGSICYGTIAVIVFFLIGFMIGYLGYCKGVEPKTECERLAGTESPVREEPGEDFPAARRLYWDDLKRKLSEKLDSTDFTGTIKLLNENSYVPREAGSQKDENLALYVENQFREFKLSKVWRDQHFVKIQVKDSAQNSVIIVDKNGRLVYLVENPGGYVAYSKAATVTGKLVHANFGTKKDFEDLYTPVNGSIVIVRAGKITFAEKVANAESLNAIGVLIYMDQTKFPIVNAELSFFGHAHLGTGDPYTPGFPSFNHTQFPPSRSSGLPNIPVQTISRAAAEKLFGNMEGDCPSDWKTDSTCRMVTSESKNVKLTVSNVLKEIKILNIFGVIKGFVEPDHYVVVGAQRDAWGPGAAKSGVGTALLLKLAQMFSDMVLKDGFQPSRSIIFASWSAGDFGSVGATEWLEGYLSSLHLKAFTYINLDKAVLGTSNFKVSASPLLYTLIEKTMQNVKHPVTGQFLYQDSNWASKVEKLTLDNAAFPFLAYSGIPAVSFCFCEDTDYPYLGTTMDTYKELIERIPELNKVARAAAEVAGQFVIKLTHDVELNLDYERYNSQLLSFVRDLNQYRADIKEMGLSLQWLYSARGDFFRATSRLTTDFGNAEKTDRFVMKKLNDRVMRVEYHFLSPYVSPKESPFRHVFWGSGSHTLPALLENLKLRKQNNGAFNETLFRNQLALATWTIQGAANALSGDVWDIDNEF
UniProt P09960: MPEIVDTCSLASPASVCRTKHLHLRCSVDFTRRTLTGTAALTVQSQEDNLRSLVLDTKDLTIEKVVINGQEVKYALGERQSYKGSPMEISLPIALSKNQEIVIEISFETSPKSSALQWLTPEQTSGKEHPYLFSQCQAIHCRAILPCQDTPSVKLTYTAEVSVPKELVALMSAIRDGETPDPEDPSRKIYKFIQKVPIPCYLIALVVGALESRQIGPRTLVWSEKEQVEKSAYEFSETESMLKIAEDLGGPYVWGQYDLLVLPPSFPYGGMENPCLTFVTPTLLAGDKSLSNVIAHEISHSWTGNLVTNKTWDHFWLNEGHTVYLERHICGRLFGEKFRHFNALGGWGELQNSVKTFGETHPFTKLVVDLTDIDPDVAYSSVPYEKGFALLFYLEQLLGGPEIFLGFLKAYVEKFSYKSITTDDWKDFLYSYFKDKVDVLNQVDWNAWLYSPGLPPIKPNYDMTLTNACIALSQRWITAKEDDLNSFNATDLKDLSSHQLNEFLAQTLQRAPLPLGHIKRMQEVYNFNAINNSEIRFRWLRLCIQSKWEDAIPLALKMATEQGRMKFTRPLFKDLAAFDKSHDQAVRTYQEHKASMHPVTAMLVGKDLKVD
UniProt P07311: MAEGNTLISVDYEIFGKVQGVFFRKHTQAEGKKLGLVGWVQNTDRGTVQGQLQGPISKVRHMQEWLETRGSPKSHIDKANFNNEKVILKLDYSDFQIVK
UniProt O95864: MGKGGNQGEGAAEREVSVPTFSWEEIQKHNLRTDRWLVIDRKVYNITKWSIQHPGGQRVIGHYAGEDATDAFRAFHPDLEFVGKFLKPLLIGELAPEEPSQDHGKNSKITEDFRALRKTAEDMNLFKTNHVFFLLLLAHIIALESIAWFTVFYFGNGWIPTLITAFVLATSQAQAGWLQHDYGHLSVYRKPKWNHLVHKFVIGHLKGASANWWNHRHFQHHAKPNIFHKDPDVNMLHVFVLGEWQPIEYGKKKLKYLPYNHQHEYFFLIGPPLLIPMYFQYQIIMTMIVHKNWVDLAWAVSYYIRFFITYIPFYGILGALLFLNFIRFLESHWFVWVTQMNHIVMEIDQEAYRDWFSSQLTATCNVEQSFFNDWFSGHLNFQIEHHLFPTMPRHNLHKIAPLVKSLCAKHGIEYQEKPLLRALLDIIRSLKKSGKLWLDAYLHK
UniProt P07355, whole entry: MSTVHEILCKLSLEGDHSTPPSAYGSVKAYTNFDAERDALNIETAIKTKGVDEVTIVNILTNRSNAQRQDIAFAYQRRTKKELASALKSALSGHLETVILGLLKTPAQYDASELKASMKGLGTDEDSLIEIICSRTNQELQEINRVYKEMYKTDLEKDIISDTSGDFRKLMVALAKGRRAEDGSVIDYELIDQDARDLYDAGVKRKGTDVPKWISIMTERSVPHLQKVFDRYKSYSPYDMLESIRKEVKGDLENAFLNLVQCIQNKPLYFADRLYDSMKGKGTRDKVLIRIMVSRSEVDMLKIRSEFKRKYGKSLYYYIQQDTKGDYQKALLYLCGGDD
UniProt P13716: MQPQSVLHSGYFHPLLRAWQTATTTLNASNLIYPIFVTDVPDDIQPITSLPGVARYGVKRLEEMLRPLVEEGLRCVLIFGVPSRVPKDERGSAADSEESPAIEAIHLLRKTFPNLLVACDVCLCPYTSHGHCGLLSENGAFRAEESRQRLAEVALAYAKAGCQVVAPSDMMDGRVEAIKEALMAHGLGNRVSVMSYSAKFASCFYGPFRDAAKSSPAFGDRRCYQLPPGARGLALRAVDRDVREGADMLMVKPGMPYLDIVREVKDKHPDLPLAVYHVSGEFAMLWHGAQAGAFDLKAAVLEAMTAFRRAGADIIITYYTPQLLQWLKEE
UniProt P13489: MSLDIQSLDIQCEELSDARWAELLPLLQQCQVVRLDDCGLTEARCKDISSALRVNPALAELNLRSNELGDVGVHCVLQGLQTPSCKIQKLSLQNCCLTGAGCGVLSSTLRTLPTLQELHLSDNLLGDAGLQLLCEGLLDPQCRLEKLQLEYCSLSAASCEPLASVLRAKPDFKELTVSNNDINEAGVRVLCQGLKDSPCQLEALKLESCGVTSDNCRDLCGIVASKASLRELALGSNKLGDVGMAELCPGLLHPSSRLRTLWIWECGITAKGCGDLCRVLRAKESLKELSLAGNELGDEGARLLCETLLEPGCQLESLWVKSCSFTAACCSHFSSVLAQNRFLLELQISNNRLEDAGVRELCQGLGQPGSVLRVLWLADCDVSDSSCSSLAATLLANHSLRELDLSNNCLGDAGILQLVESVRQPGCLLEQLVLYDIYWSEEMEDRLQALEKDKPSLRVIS
UniProt P16402, whole entry: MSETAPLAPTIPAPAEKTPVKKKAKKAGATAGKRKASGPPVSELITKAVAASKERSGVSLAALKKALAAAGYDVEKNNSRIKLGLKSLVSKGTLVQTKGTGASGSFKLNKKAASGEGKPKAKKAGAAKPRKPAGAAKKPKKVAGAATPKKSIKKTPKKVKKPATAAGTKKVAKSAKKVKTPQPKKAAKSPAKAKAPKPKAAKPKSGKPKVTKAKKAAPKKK
UniProt P10636, whole entry: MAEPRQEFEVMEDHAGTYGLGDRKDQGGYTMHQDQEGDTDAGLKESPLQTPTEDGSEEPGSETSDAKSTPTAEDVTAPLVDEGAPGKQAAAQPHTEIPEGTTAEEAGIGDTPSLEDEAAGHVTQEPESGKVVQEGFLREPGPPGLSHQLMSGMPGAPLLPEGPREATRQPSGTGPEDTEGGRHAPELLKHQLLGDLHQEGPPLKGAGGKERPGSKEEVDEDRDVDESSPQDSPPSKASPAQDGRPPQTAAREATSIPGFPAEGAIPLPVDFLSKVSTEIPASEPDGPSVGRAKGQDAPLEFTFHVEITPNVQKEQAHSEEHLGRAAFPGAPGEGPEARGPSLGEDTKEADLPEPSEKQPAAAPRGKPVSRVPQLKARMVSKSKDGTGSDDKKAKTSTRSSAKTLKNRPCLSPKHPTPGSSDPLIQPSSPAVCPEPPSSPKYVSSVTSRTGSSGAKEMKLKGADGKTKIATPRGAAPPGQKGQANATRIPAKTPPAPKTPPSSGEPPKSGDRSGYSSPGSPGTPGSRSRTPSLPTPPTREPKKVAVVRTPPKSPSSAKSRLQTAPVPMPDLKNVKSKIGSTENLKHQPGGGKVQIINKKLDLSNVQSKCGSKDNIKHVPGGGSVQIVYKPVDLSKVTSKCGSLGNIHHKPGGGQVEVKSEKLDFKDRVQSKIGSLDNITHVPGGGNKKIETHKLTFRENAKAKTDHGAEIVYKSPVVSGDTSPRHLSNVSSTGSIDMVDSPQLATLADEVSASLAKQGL
UniProt P06729: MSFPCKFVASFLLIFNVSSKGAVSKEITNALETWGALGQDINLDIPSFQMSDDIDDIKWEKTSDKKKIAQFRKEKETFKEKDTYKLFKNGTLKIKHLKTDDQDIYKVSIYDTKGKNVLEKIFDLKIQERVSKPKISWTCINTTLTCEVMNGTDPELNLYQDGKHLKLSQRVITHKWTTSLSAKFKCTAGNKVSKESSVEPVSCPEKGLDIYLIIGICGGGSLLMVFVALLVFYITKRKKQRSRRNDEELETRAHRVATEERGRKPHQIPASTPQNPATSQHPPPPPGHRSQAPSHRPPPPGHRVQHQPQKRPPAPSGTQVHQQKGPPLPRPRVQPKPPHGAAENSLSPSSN
UniProt O95831, whole entry: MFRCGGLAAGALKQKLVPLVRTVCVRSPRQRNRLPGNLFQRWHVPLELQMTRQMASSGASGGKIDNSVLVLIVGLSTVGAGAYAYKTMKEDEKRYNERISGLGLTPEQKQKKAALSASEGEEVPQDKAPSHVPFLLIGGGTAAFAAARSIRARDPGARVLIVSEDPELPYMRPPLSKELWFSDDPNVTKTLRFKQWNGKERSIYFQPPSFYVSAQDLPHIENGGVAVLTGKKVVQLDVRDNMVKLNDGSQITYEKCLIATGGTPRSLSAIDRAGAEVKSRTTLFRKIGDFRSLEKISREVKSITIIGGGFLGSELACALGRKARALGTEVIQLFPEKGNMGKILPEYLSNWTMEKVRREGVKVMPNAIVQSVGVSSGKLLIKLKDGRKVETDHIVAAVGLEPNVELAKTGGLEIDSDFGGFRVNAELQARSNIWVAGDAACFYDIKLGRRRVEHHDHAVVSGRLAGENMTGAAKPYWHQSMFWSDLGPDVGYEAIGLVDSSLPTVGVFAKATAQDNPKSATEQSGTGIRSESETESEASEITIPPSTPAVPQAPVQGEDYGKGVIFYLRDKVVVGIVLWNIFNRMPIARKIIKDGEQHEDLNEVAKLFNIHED
UniProt P06126: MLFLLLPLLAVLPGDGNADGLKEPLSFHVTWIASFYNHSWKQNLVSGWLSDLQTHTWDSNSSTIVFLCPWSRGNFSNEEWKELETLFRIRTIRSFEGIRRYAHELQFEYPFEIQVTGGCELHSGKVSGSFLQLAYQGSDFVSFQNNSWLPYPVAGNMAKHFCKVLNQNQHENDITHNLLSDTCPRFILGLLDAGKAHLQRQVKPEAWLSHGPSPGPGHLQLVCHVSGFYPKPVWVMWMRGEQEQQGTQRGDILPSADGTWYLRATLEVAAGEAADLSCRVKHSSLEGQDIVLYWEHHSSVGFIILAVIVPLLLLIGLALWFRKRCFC

Compound: Nc1ncnc2c1ncn2[C@@H]1O[C@H](COP(=O)(O)OP(=O)(O)NP(=O)(O)O)[C@@H](O)[C@H]1O [adenylyl imidodiphosphate]
Test: NP40-soluble protein abundance relative to vehicle (solubility fold change) (ratio); higher = more soluble protein in presence of AMP-PNP
Procedure, shortened: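 Jurkat crude lysate (Dounce-homogenised) was treated with eight concentrations from 0.1 to 10 mM for 10 min at room temperature, then 3 min at 37 °C. It was solubilised with 0.8% NP40 and benzonase (60 min, 4 °C) and ultracentrifuged, and the supernatant was TMT-labelled for LC-MS/MS. Intensities were vsn-normalised, and the value is the fold change against the NP40-processed vehicle per replicate, from three independent experiments.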

Target	NP40-soluble protein abundance (concentration: 0.1mM)	NP40-soluble protein abundance (concentration: 0.5mM)
ICAM2 (UniProt P13598)	0.984 ± 0.018	1.05 ± 0.046
VIM (UniProt P08670)	0.983 ± 0.036	1.04 ± 0.093
DARS (UniProt P14868)	1.03 ± 0.018	0.997 ± 0.07
POLR3D (UniProt P05423)	1 ± 0.05	0.9844 ± 0.0057
TFRC (UniProt P02786)	1.01 ± 0.038	1.04 ± 0.057
UniProt P09960 and related entries	1.01 ± 0.038	1 ± 0.065
UniProt P05388 and related entries	1.04 ± 0.092	1.02 ± 0.046
UMPS (UniProt P11172)	1.02 ± 0.016	1.01 ± 0.025
UniProt P06396-2	1.06 ± 0.064	1.07 ± 0.081
CTSD (UniProt P07339)	0.998 ± 0.022	1.03 ± 0.043
UniProt P10244 and related entries	0.995 ± 0.037	1.01 ± 0.043
UniProt O95905 and related entries	1.016 ± 0.0047	1 ± 0.036
UniProt P07311 and related entries	1.01 ± 0.064	1.07 ± 0.11
UniProt O95864 and related entries	1.001 ± 0.008	1.02 ± 0.056
UniProt P14735 and related entries	1.01 ± 0.014	0.99 ± 0.043
COX6C (UniProt P09669)	1.08 ± 0.16	1.03 ± 0.14
ANXA2 (UniProt P07355)	0.944 ± 0.014	0.978 ± 0.029
UniProt P06733 and related entries	0.975 ± 0.045	1.04 ± 0.091
P15531-2|P22392-2|Q32Q12 (UniProt Q32Q12+P22392+P15531)	1.07 ± 0.12	1.04 ± 0.1
AKR1A1 (UniProt P14550)	0.971 ± 0.051	0.957 ± 0.031
UniProt O96020 and related entries	1.04 ± 0.028	0.9909 ± 0.002
UniProt P04083 and related entries	1.01 ± 0.02	0.982 ± 0.082
ASS1 (UniProt P00966)	1.012 ± 0.008	1.01 ± 0.017
UniProt P13716 and related entries	1.02 ± 0.031	1 ± 0.025

Target	NP40-soluble protein abundance (concentration: 0.1mM)	NP40-soluble protein abundance (concentration: 0.5mM)
UniProt P13807 and related entries	1.02 ± 0.034	0.968 ± 0.065
GNAI3 (UniProt P08754)	1.01 ± 0.058	0.992 ± 0.11
PARP1 (UniProt P09874)	1.01 ± 0.012	1.03 ± 0.019
SLC2A1 (UniProt P11166)	1.02 ± 0.069	1.01 ± 0.058
PGK1 (UniProt P00558)	0.947 ± 0.21	0.913 ± 0.15
RNH1 (UniProt P13489)	0.969 ± 0.022	0.973 ± 0.032
BAG3 (UniProt O95817)	0.966 ± 0.062	0.964 ± 0.046
HIST1H1D (UniProt P16402)	1.03 ± 0.06	1.04 ± 0.061
UROD (UniProt P06132)	1.016 ± 0.0053	0.996 ± 0.011
UniProt P11310 and related entries	0.991 ± 0.043	1.04 ± 0.076
UniProt P04053 and related entries	1.03 ± 0.035	1.01 ± 0.057
COX6B1 (UniProt P14854)	0.924 ± 0.1	0.874 ± 0.025
UniProt P10636-2|P10636-4|P10636-7|P10636-9|P10636-6	0.977 ± 0.035	1.02 ± 0.07
ATP2A2 (UniProt P16615)	1 ± 0.034	0.97 ± 0.051
UniProt P06729	0.987 ± 0.059	1.05 ± 0.14
SP1 (UniProt P08047)	0.965 ± 0.022	1.02 ± 0.038
UniProt O95831 and related entries	1.011 ± 0.0097	0.98 ± 0.03
UROS (UniProt P10746)	1 ± 0.026	0.988 ± 0.044
DLAT (UniProt P10515)	1.18 ± 0.23	1.04 ± 0.16
PDIA4 (UniProt P13667)	0.954 ± 0.012	0.989 ± 0.021
UniProt P06126	0.998 ± 0.018	0.989 ± 0.021
UniProt P13051 and related entries	0.9957 ± 0.0097	1.01 ± 0.052
UniProt P10398 and related entries	1.04 ± 0.023	1.02 ± 0.041

Retrieved one by one from the entries so far (two):
Target	NP40-soluble protein abundance (concentration: 0.1mM)	NP40-soluble protein abundance (concentration: 0.5mM)
CTSD (UniProt P07339)	0.998 ± 0.022	1.03 ± 0.043
UniProt P10398 and related entries	1.04 ± 0.023	1.02 ± 0.041
